We go through 108 sequences from PubChem BioAssay AID1347426 (Functional Genomics Laboratory (NCATS/FGL), 2020).

Out of some 31,000 sequences screened, about 1,400 (4.5%) were called active.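 The calls were made as follows: active = median seed-adjusted z-score above 1 or below -1; inactive = the rest.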 Some of the results follow.

The nature of this test: Novel Modifiers of Survival Motor Neuron (SMN) Protein: Gene Identification via Genome-wide siRNA Screen.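 Also: luminescence tracks full-length SMN protein made from the SMN2 reporter.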 Conditions: HEK293T SMN2-luciferase reporter, siRNA knockdown, 72 h; actives lie on both sides. An outline of the steps:
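HEK293T cells stably carrying an SMN2 promoter/splicing cassette–luciferase reporter were reverse-transfected with 1 pmol siRNA per well (druggable-genome library, 3 siRNAs per gene) and grown 72 h at 37 °C. Luminescence, normalized to negative-control siRNA and log10-transformed, was scored as MAD.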
In the case of GGAGAGAAGUCUUACAAGUTT against ZNF91, the median seed-adjusted z-score is inactive: 0.105.
For CUCCCAAUGUUGCUCGUAATT against UCP2 the value was inactive: -0.111.
In the case of GUAGUGGAGUUGCCCGUGATT against TBC1D10A, the median seed-adjusted z-score is inactive: -0.722.
For ACGAGUACUUCUACAUUCUTT against KCNE4 the value was inactive: 0.0795; for GGCUAUCAAGGACUCACAATT against PAOX, inactive: 0; for UAAUCUCACCUGUAACUUUTT against NANOS1, inactive: 0.369.
Under GGAUUUACCGGAGGAAAAUTT against OTUB2 stands inactive: 0.513.
For GCAACACUGUCAUUUGGGATT against CR1L the value was inactive: -0.038; for GCUUAUAGAUUGUAUUCGATT against HECTD1, inactive: -0.0588; for GAACAUCUUCUGGACCUUUTT against ZNF169, inactive: 0.
Take GUACAAUCGUUGACAAUGATT against PPEF1: the median seed-adjusted z-score is inactive: -0.58.
For GAAGUUUACUUAUCUGGGUTT against PRKAB1 the value was inactive: 0.536; for GAACAAGGAUGGAUUUAUUTT against GUCA1C, inactive: -0.617.
GCACCGACCUCAUGUUCAATT against NACC2: the median seed-adjusted z-score was inactive: 0.144.
For GAAGAGGUAUUGAAUGCUATT against SRP54 the value was inactive: 0.203.
Under GUCCCGUGCUUGCUAGUCATT against ZNF324 stands inactive: 0; under GGUGCCUAAUGAGAAGGGATT against AGER, inactive: 0.506; under GGAACAUCAUUCUACCCAATT against KIF15, inactive: -0.873.
As for GAUAAAAACAGUCCUUUCUTT against FXYD3, the median seed-adjusted z-score was inactive: 0.254.
Under GAAAUGUGGUACUAAAGCATT against RALBP1 stands inactive: -0.0514.
Under AGGACUAGAUGGAGCAAAATT against COL13A1 stands inactive: -0.112; under GUUUUAUCCUGAUUCAUCATT against ZNF69, inactive: 0.
Take GCCUUCAAAUAUUCCUCGATT against ZNF333: the median seed-adjusted z-score is inactive: 0.418.
On to GGAUGAUUUAGAAUUGUCATT against ATP6V0C, for which the median seed-adjusted z-score is inactive: -0.389.
For GCACUUCCGAGUGAAGUUUTT against PIK3CD the value was inactive: 0.00831.
As for GACACUUCCUAUUCAGAAUTT against FECH, the median seed-adjusted z-score was inactive: 0.135.
AGCUUUAUCUACUCCCUGATT against FSD1: the median seed-adjusted z-score is inactive: 0.685.
CCAGGGAUGUUAGUCUGUATT against CACNA1C: the median seed-adjusted z-score is inactive: 0.
In the case of GCCUCAAAGUAUUCAGCAATT against STARD13, the median seed-adjusted z-score was inactive: -0.0337.
Under GGCCCAUAUUCAUCUGCUATT against STYX stands inactive: 0.694; under GCAGGUGUCUGGACGAAAATT against CHST7, inactive: 0; under CAGUUAUCAUUGGUGGUAATT against PYGL, inactive: 0.166.
As for ACAUCGUCCGCUUCUAUGATT against WNK4, the median seed-adjusted z-score is inactive: 0.385.
Under GUGUGGUCAUUCAACUUGATT against ZNF324B stands inactive: 0.176.
Under ACAACGCACCAAAAUAUCATT against FBXO45 stands inactive: -0.043.
Under ACCAGUACAUCAUCGCGAATT against FOXL2 stands inactive: -0.166; under GUGUUCGAGCUGAUACAUATT against HCN1, inactive: -0.107; under CAACGAAUCUUGAUGACAUTT against HEL308, inactive: 0.229.
On to AGCCUUUAAUCAUUUCUCATT against ZNF85, for which the median seed-adjusted z-score is active: -1.01.
For GCUCCCAUCAUGUACGUUUTT against GPR155 the value was inactive: 0.0681.
Regarding GAAAGUAUAUAUUGGUGAATT against PIP4K2C, the median seed-adjusted z-score is inactive: 0.27.
Under GCAUGCAAAUAGCAUAGAATT against SLC4A8 stands inactive: -0.474; under CUACCACAGUUGCUUCUUUTT against HCRTR1, inactive: 0.739.
Take AGUUUGAACAGAUUCGGAATT against KCNJ15: the median seed-adjusted z-score is inactive: 0.0332.
For GCACAAAUGUCACCGUCAATT against RDH14 the value was inactive: 0.0287.
For GGAAGUCUCUUGUCUGCAATT against RNASEL the value was inactive: 0; for GGAUUUGAGGGAAAACGCATT against FMO2, inactive: -0.265; for GGAAGACCAUUGAUUGCAATT against CLPB, inactive: -0.985.
In the case of GAAUUUCAACCAGUACUAUTT against ACSBG2, the median seed-adjusted z-score is inactive: 0.027.
For GAAAUCUUCUUGAGUGUAATT against GPR141 the value was inactive: -0.777.
As for CAGUCAAGCGGACCACAAATT against CHRM2, the median seed-adjusted z-score was inactive: 0.053.
For ACAAAUACGUGGAAAAGAATT against CENTB5, the median seed-adjusted z-score was inactive: 0.183.
Consider UCUACUUCCAAGAAUUUAATT against SCNN1B, for which the median seed-adjusted z-score is inactive: 0.585.
Under GCACUACAUUGACCUGAAATT against NME2 stands inactive: -0.0728; under CCCAUGCUGUCUACGGCAATT against GPR173, inactive: -0.147.
Under CUCUGUGAAUGGUGCCGAATT against FAM57A stands inactive: 0.0434; under GAGUGAAGAUGAGUUGACATT against XRCC6, inactive: 0; under GGUGUUAUCAGAAUUCCGATT against CARS, inactive: 0.
For CCCUUAAACUCGAACCCAATT against HLX the value was inactive: 0.379; for GGUUUUUCCGCCAACUAGATT against CAPS, active: -1.25.
On to GAAAAGGAUUGUAAGAUAATT against SULT1E1, for which the median seed-adjusted z-score was inactive: 0.509.
For GAAUGGAAACGAUUGUCUUTT against PCMTD2 the value was inactive: -0.0765.
Turning to GAACUGAGUUAAUUGGGAATT against SELL, the median seed-adjusted z-score is inactive: 0.554.
For GGAGGAGUCUUUAAAGAGATT against LPO the value was inactive: 0.201.
As for GGAUUCCGAGAGUGCCUAATT against HEY2, the median seed-adjusted z-score was inactive: -0.0831.
Under CACGGGAUAUGGAACGAAATT against CXCR7 stands inactive: -0.511; under UCCGCAUCCUAGUCUCUAUTT against LTC4S, inactive: 0.
For GGUCCUUCAUGCACGUCAATT against DUSP3 the value was inactive: -0.00768; for CCCUCUCCGUGCAAAUGCATT against CHRNA4, inactive: 0.174; for GGAGAUUCUAGUAUACAGATT against PTPN2, inactive: 0.302.
Under CUACCGAAAUGUCUUCCAUTT against SLC25A35 stands inactive: -0.762; under CCCUUGCCUCAGCAUCUGATT against SPRY3, inactive: -0.126; under GGUGGACUUCUAUGCCUUATT against TTC16, inactive: 0.
Turning to GGCCUUCAAUUGAAGAAGUTT against TSSK3, the median seed-adjusted z-score is inactive: -0.381.
For GAAUCAAGACAAACCCGAATT against TTN, the median seed-adjusted z-score is inactive: 0.872.
Under CCAUGAGGUGCAUAUCUAUTT against ARPC1B stands inactive: 0.
Under CCACUCUCAUUGUGACUGATT against DDX54 stands inactive: 0; under GGAUUCUAUUUAUUAUGCUTT against CDKN2D, inactive: -0.455; under AAAAACCCGUUGUUCUAAATT against CYP3A4, inactive: 0.633.
Under GAGUGAGAGCUGUAGAAAATT against CREB3 stands inactive: 0.0509; under GGUGAUUCAAGAUGCCCAATT against PXMP2, inactive: -0.444.
With CCUCACUUCCUGACCAUAATT against F5, the median seed-adjusted z-score was inactive: -0.127.
For GCAUGUCAGGAUUAGCCGATT against BMP4 the value was inactive: -0.612.
On to CGUCCAAGAUCGAACCCAUTT against HIRA, for which the median seed-adjusted z-score was inactive: 0.286.
Under GCAUUGGGAUGUACUUGUATT against LRP12 stands inactive: 0.416; under CCAAGACCGAAAGCACAGATT against NUDT4, inactive: -0.0306.
For GCCGUUACCAUGGAACUUUTT against GSPT2 the value was inactive: 0.846.
Under GAAGUGUUUGAAUCUCGUATT against AKAP3 stands inactive: 0.0138.
As for CCUUCACUCCGGUCAAGUATT against FARSA, the median seed-adjusted z-score was inactive: -0.158.
For GCAAGACCUUUGACUACAATT against SSRP1 the value was inactive: -0.31.
For GGUCUAUGAUUGACAAGUATT against NRD1 the value was inactive: 0.0825; for GGCCAAUGGCUGAUGGUGATT against HSPB9, inactive: 0.262.
Under AGAAUAAGUUCAAACAGGATT against RAB4B stands inactive: -0.207.
Turning to CCAUGAUUGGGAUCUCUGUTT against AQP6, the median seed-adjusted z-score is inactive: 0.008.
Regarding GCCUACCUCUAUAUCCGAATT against SNRNP200, the median seed-adjusted z-score was inactive: 0.889.
Under GCGUGGAAGCUUCUAUUUATT against WTIP stands inactive: 0.222; under CAUCGGCUUCGGUGACUUUTT against KCNK5, inactive: 0; under GGGACAUGCUUUGGAAGAATT against KHDRBS3, inactive: 0.0681.
On to GACUUGAAUGGAACGGUGATT against IKBKB, for which the median seed-adjusted z-score was inactive: 0.0896.
For CCAUGGGAAUCCAAUCUGUTT against PTTG1 the value was inactive: -0.459; for AAUUCAUCGUUAUGUGGAATT against AP1S2, inactive: -0.323; for CGACUAUUGUUGAAGUUAATT against HSPA13, inactive: 0.
Under GCUUUACACUGGGACGAAATT against NOX3 stands inactive: 0.04; under GUGCUGAACUUCUACCGAATT against KCND1, inactive: -0.359.
For CCUGAACCCUUACCGGAAATT against SETD2 the value was inactive: -0.0192.
Turning to AACUGGAAAUUAUACAAAATT against NDUFA4, the median seed-adjusted z-score is inactive: 0.
Regarding CCAUAGCGGCAACCAAGAATT against MGAT4A, the median seed-adjusted z-score is inactive: 0.134.
For GAAGCAUGUAUAUUACCUATT against SLC19A3 the value was inactive: -0.0232.
